According to article PMC11328874 (2024):
Results are given in words; binding and its absence hold for the method and conditions named. Binding seen in cells or lysates may run through a third protein. Binding can be weak; no strength is given.

The chains behind the UniProt entries cited, without tags or fusion partners. Where a name states a change or a piece, a line headed by the entry shows the natural chain unless it says otherwise.
UniProt Q6P1F6: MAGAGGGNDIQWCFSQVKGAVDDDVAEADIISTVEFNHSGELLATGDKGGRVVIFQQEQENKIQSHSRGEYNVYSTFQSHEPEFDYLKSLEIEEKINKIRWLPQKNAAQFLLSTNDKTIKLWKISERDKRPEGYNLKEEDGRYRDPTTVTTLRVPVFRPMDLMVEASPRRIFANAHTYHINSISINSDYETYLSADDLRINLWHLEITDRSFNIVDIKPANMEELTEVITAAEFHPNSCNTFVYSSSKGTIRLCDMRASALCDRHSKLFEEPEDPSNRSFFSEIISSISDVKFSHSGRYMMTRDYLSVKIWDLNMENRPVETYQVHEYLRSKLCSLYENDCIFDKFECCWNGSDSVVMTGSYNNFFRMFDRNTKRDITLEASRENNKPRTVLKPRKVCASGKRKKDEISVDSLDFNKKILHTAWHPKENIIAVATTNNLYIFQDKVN
UniProt P01108: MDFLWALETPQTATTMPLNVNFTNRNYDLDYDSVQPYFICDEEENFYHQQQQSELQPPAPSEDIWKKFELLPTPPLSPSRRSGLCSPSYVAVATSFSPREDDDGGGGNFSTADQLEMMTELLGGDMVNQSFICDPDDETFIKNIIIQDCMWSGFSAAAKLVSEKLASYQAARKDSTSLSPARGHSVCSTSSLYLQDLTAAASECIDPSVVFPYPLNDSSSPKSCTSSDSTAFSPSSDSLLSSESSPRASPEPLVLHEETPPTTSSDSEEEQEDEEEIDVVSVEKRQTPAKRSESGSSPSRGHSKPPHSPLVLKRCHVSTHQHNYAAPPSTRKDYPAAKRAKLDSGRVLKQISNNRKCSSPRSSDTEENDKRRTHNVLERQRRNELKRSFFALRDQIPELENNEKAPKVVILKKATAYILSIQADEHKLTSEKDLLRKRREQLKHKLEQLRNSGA

Target: endogenous B55α (66cl4 cells) (mouse (endogenous in 66cl4)) (UniProt Q6P1F6)
Experiment: co-IP; 66cl4 cell lysate, α-B55α antibody with Protein A/G beads at 4 °C overnight, blot with α-B55α and α-Myc; cells with scrambled shRNA, Eya3 shRNA, or with and without FLAG-Eya3 overexpression

- binding: binds
Substance: endogenous Myc (66cl4 cells) (from UniProt P01108)
